The test deals with Flag–GSG1L (Germ Cell-Specific Gene 1-Like) (mouse) (UniProt D3Z7H4). As to the kind of experiment: co-IP; HEK293T cells co-expressing HA–GluA1 or HA–GluK1 with Flag–GSG1L; lysis buffer 25 mM Tris pH 7.5, 1% Triton X-100, 150 mM NaCl, 5% glycerol, 1 mM EDTA; anti-Flag M2 antibody and Protein G beads overnight at 4 °C; HA-tagged subunits probed with anti-HA.

Chains of the proteins cited; added tags and fusions are not shown.
UniProt D3Z7H4: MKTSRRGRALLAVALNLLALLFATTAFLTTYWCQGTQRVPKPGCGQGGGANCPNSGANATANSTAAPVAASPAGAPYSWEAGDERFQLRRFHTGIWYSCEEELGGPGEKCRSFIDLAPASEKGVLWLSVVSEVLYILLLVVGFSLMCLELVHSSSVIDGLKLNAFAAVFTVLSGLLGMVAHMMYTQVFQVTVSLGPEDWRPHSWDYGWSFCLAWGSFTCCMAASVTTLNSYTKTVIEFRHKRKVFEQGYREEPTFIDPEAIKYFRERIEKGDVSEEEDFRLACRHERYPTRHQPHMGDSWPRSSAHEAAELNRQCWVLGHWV

Results are given in words; binding and its absence hold for the method and conditions named. Binding seen in cells or lysates may run through a third protein. A result given as binding can be weak or reduced; the word gives no strength.

In the case of “HA–GluA1 (AMPAR GluA1 subunit) (from UniProt P19490-2) (receptor)”, the binding result is recorded as “binds”.

Values taken from paper PMC4778064.
